Test results reported in patent US5084142A, “Separation of tertiary butyl alcohol from water by azeotropic or extractive distillation” (priority 1991, dated 1992).
Some entries repeat one wording, which the source may state once for all of them.

Test: Extractive agents evaluated in vapor-liquid equilibrium still (separating water from t-butanol)
Assay type: physicochemical
Details: effective extractive distillation agents, in words

Compound | overhead product brought out by extractive agent
CCCC(=O)CC [3-Hexanone] | bring out the water
CC(C)CC(O)CC(C)C [Diisobutyl carbinol] | bring out the water
COC(=O)c1ccccc1C(=O)OC [Dimethyl phthalate] | bring out the t-butyl alcohol
CCCCCC(=O)OC [Methyl caproate] | bring out the water
OCCOc1ccccc1 [Ethylene glycol phenyl ether] | bring out the water
C[S+](C)[O-] [Dimethyl sulfoxide] | bring out the t-butyl alcohol
CC(O)c1ccccc1 (stereo not drawn) [alpha-Methyl benzyl alcohol] | bring out the water
CCCCOC(C)=O [n-Butyl acetate] | bring out the water
CC(C)CCCCCCCO [Isodecanol] | bring out the water
OCCOCCO [Diethylene glycol] | bring out the t-butyl alcohol
CCCC(=O)OCC(C)C [Isobutyl butyrate] | bring out the water
CCCCC(=O)CC [3-Heptanone] | bring out the water
CCCCCCC(C)O (stereo not shown) [2-Octanol] | bring out the water
CC(O)CCO (stereo not shown) [1,3-Butanediol] | bring out the t-butyl alcohol
CCC(O)CO (stereo not shown) [1,2-Butanediol] | bring out the water
COc1ccccc1 [Anisole] | bring out the water
CCCCCCO [Hexyl alcohol] | bring out the water
OC1CCCCCCCCCCC1 [Cyclododecanol] | bring out the water
CN(C)C=O [Dimethyl formamide] | bring out the t-butyl alcohol

Compound | overhead product brought out by extractive agent
CCCCOCCO [Ethylene glycol butyl ether] | bring out the water
CCCCCC(=O)CC [3-Octanone] | bring out the water
CC(CO)CO [2-Methyl-1,3-propanediol] | bring out the t-butyl alcohol
CC(=O)OCCOC(C)=O [Ethylene glycol diacetate] | bring out the water
CCOCCOCCOCC [Diethylene glycol diethyl ether] | bring out the water
COC(=O)CCCCC(=O)OC [Dimethyl adipate] | bring out the t-butyl alcohol
CCCC(=O)OCC [Ethyl butyrate] | bring out the water
OCCCCO [1,4-Butanediol] | bring out the t-butyl alcohol
Dipropylene glycol | bring out the t-butyl alcohol
CC(C)CC(=O)CC(C)C [Diisobutyl ketone] | bring out the water
CC(=O)CCC(C)C [Methyl isoamyl ketone] | bring out the water
CC1=CC(=O)CC(C)(C)C1 [Isophorone] | bring out the water
CC(=O)C=C(C)C [Mesityl oxide] | bring out the water
CCOC(=O)c1ccccc1O [Ethyl salicylate] | bring out the water
2-Hydroxyacetophenone | bring out the water
CCCCC(=O)OCC [Ethyl n-valerate] | bring out the water
O=C(OCc1ccccc1)c1ccccc1 [Benzyl benzoate] | bring out the water
OCCOCCOCCO [Triethylene glycol] | bring out the t-butyl alcohol
